# Source: article doi:10.1101/2020.09.30.321497
# Sequences of proteins named here, by UniProt entry; tags and fusion partners are left off.
# UniProt P70689: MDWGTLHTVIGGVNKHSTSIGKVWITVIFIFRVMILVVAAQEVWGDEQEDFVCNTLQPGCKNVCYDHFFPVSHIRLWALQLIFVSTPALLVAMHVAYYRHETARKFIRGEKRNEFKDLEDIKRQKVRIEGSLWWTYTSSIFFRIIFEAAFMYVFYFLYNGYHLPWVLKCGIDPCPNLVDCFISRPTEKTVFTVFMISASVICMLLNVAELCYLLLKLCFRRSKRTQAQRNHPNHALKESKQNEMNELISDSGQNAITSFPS
# UniProt Q6URW6: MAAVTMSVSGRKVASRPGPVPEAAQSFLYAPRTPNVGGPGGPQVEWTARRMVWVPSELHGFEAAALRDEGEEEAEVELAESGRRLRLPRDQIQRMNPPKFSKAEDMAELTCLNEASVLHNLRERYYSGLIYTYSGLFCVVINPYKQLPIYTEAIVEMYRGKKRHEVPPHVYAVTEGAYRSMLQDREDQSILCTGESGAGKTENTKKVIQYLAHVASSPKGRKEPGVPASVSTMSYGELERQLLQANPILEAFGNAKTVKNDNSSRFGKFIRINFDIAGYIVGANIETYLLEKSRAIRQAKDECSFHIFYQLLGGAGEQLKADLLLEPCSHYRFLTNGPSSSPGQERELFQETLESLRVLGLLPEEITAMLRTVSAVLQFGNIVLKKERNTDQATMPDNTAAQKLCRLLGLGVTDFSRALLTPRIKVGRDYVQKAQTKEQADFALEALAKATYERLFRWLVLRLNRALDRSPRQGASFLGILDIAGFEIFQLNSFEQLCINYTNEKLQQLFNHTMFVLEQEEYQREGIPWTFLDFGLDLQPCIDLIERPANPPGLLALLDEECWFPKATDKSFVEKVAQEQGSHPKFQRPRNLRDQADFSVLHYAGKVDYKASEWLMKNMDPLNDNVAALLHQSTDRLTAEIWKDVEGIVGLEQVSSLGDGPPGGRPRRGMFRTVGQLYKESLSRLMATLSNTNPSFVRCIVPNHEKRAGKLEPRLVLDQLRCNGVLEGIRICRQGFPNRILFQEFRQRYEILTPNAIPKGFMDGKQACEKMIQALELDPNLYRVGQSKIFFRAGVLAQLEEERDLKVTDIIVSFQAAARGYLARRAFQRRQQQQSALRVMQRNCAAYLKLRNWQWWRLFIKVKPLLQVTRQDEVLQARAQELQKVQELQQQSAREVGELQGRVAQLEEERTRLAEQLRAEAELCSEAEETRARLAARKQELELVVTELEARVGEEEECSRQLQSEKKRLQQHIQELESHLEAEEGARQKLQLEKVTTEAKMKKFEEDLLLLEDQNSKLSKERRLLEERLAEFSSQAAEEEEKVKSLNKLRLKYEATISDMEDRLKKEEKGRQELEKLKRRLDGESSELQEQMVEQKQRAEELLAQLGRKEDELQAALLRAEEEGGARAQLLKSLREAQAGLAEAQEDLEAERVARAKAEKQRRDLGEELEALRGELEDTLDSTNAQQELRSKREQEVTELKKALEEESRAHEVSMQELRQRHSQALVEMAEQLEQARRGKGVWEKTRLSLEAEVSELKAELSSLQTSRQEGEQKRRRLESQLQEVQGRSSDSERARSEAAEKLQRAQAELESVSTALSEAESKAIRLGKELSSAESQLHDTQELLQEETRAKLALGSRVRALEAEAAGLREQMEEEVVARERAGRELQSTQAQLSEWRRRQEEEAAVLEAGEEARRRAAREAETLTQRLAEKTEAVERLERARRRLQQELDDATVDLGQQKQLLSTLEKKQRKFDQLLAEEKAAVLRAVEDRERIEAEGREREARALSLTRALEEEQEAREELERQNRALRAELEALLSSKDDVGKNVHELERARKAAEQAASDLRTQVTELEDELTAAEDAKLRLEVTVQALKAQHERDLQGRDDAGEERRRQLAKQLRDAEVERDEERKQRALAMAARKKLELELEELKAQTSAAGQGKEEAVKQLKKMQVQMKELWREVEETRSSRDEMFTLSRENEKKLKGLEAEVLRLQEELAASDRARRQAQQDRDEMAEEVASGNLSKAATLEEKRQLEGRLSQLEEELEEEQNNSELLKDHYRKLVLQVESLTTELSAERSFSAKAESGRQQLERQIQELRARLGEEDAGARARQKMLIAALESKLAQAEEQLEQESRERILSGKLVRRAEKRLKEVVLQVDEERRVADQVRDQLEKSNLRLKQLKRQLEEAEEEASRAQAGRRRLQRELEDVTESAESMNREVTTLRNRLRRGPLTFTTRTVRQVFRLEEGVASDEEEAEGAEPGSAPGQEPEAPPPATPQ
# UniProt P70336: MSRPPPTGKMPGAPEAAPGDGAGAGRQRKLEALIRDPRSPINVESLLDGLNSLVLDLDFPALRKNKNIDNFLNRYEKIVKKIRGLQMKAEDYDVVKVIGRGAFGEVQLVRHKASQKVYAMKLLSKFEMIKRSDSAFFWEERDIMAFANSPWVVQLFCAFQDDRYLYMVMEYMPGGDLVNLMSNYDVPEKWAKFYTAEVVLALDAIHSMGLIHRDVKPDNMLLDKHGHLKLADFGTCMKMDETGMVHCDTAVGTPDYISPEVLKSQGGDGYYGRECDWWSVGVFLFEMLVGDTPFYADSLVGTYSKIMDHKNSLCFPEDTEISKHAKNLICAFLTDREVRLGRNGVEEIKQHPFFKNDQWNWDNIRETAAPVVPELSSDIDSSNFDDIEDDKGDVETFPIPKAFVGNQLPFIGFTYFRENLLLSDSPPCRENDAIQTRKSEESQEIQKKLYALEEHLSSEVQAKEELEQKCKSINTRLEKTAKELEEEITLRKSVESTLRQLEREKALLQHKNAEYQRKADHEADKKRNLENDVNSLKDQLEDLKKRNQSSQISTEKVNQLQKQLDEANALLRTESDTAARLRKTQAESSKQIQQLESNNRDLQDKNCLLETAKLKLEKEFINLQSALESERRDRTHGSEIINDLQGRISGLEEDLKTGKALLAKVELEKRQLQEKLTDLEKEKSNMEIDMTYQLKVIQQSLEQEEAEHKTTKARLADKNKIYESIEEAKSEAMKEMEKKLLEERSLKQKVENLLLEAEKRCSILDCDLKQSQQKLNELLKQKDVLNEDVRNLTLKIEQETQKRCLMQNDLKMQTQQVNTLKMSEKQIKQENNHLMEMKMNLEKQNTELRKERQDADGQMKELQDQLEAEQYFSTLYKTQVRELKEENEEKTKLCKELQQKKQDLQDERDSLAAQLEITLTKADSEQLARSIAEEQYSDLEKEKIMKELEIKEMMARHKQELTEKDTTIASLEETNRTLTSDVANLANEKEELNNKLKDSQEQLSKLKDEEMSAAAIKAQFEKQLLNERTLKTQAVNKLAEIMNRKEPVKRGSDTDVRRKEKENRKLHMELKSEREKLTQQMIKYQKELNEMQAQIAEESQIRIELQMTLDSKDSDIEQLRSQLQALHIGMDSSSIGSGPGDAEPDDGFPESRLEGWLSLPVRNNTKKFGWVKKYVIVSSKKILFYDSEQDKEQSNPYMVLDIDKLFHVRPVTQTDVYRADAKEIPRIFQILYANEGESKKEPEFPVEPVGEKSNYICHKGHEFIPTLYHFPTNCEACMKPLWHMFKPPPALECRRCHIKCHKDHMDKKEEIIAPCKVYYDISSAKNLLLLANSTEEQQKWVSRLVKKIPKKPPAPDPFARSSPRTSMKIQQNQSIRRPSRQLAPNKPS
# These are yes or no findings as the source states them, for the method shown. In cells and extracts the contact can be indirect. A yes stands for co-enrichment or nearness to the bait. Other partners may have been found.
# Molecular target: connexin 30 (mouse (endogenous in mouse visual cortex)) (UniProt P70689)
# Test: affinity purification with mass spectrometry
row,binding,Substance
1,binds,Myosin 14 (from UniProt Q6URW6 1-2000)
2,binds,Rho-associated protein kinase ROCK2 (from UniProt P70336 1-1388)
